The values that follow come from paper PMC11679574, “Intestinal Cells-on-Chip for Permeability Studies” (Micromachines, 2024).

Read-outs that look alike come from different tables or passages of the source.

The test system of data set [1] is Caco-2. The conditions noted are these: cited from earlier work.
Data set [2] is described as follows: Permeability in cell-on-chip system under laminar flow, enteroid monolayers. The conditions noted are these: human. As for the experimental part:
To add the culture disc with cells into the system, it was transferred to a biosafety cabinet, the chips were opened from the top and the discs were added to the chip, after which they were closed using a twisting cap mechanism. Sufficient medium was added to the chip to ensure no air bubbles were trapped during this procedure. Flow speed was adjusted to 17 µL/min and the system was placed back into a cell culture incubator (37 °C, 5% CO2). After a short period of equilibration, transport medium (with/without compound of interest) was added to apical and basolateral reservoirs, with the basolateral medium containing 4% BSA. […]
Leakage to the basolateral medium was determined using the BioTek Synergy H1 microplate reader (BioSPX, Abcoude, The Netherlands). […] Apparent permeability values (Papp) were calculated according to Equation (1):(1) Papp=dQ/dt×(1/A×C0) in which dQ/dt is the amount of drug transported over the barrier (ng/sec), A is the exposed area of the cell monolayer (cm^2) and C0 is the initial dose concentration of the compound (ng/mL). […]
For quantification, a standard of parental compounds and metabolites was prepared in the same medium as samples. […] A limit of quantification (LOQ) was determined for each compound based on the standard curve and a limit of detection (LOD) was determined based on a noise signal. […]

Another data set can be described thus: in vitro. The conditions noted are these: human. The method, then:
Leakage to the basolateral medium was determined using the BioTek Synergy H1 microplate reader (BioSPX, Abcoude, The Netherlands). […] Apparent permeability values (Papp) were calculated according to Equation (1):(1) Papp=dQ/dt×(1/A×C0) in which dQ/dt is the amount of drug transported over the barrier (ng/sec), A is the exposed area of the cell monolayer (cm^2) and C0 is the initial dose concentration of the compound (ng/mL). All measurements were performed under flow (17 µL/min), and the chip system was inside a cell culture incubator (37 °C, 5%CO2) during the entire experiment, as described in Section 2.6.
Apical and basolateral medium reservoirs were sampled at t = 0, 1, 2 and 4 h. All measurements were performed under flow (17 µL/min), and the chip system was inside a cell culture incubator (37 °C, 5% CO2) during the entire experiment, as described in Section 2.6.
For specific inhibition, 5 µM elacridar and 5 µM ketoconazole (both Sigma-Aldrich, Zwijndrecht, The Netherlands) were used. […]
For quantification, a standard of parental compounds and metabolites was prepared in the same medium as samples. […] A limit of quantification (LOQ) was determined for each compound based on the standard curve and a limit of detection (LOD) was determined based on a noise signal. […] Recovery was calculated as the percentage of original dose added to the system. […]

Data set [3] deals with Caco-2. Conditions: cited from earlier work. The source holds these as a separate data set.

As to `CC(C)NCC(O)COc1ccc(CC(N)=O)cc1` (stereo not drawn) [Atenolol, atenolol], the results for the “Papp A to B, Flow” value in the data set on Caco-2 [1] (ref Sasaki 2022 [26]) and with Caco-2 [1] (ref Zhang 2024 [13]) were 0.1 ×10⁻⁶ cm/s and 0.72 ×10⁻⁶ cm/s, respectively. Also, the figures for the Papp A→B (in data set [2]; in “in vitro”) were 3.08 ×10⁻⁶ cm/s and 0.69 ×10⁻⁶ cm/s, respectively. Also, the “Papp A to B, Static” value is 0.43 ×10⁻⁶ cm/s with Caco-2 [3] (ref Sasaki 2022 [26]) and 0.26 ×10⁻⁶ cm/s with Caco-2 [3] (ref Zhang 2024 [13]).
